Measurements reported in PubChem BioAssay AID1671195 (Yale University, 2021).
This is one part, drawn at random, of about 22,000 deposited reagents. Over the whole deposit, about 1,510 (6.9%) got an active call. 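Active includes knockdowns raising or lowering LDL uptake; positive z-scores mean more uptake, negative mean less.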 No sequences are given here.

Aim: 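Knockdowns that increase or decrease uptake of fluorescent LDL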 (primary screen)
System: human Huh7 hepatoma cells
Reagents: siRNA pool against human genes, 18 nM
Duration: about 2 to 2.5 days of knockdown, then 8 h LDL uptake
Challenge: DiI-labelled LDL at 30 µg/ml for 8 h, in lipoprotein-deficient serum medium
Measurement: 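Per-cell DiI-LDL intensity by automated imaging; well means scaled to the plate median and given as a robust z-score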
Reading the numbers: robust z-score: higher = more LDL uptake after knockdown
Call rule: 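Active when two or more replicates show a robust z-score above 2 or below -2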

ING2-DT: robust z-score, replicate 1 = -0.595; robust z-score, replicate 2 = -0.77; robust z-score, replicate 3 = -0.578; Call = inactive
SVOPL: robust z-score, replicate 1 = -0.338; robust z-score, replicate 2 = -0.666; robust z-score, replicate 3 = 0.585; Call = inactive
HOXA7: robust z-score, replicate 1 = -0.487; robust z-score, replicate 2 = -0.0996; robust z-score, replicate 3 = -0.246; Call = inactive
NAA25: robust z-score, replicate 1 = 0.231; robust z-score, replicate 2 = 0.82; robust z-score, replicate 3 = 0.407; Call = inactive
GNAI3: robust z-score, replicate 1 = 1.11; robust z-score, replicate 2 = 0.745; robust z-score, replicate 3 = 1.12; Call = inactive

2 of these entries, set out differently:
{"target gene":"NAA25","robust z-score, replicate 1":0.231,"robust z-score, replicate 2":0.82,"robust z-score, replicate 3":0.407,"Call":"inactive"}
{"target gene":"GNAI3","robust z-score, replicate 1":1.11,"robust z-score, replicate 2":0.745,"robust z-score, replicate 3":1.12,"Call":"inactive"}

Continued:
FERMT1: robust z-score, replicate 1 = 0.462; robust z-score, replicate 2 = -0.987; robust z-score, replicate 3 = -0.127; Call = inactive
PTPRU: robust z-score, replicate 1 = 0.193; robust z-score, replicate 2 = 0.152; robust z-score, replicate 3 = 0.432; Call = inactive
CDX2: robust z-score, replicate 1 = -0.62; robust z-score, replicate 2 = -2.11; robust z-score, replicate 3 = -1.18; Call = inactive
TNFAIP6: robust z-score, replicate 1 = -0.439; robust z-score, replicate 2 = -0.337; robust z-score, replicate 3 = -0.587; Call = inactive
TCIM: robust z-score, replicate 1 = 5.35; robust z-score, replicate 2 = 5.42; robust z-score, replicate 3 = 5.47; Call = active
AIRIM: robust z-score, replicate 1 = 0.953; robust z-score, replicate 2 = 2.46; robust z-score, replicate 3 = 0.00598; Call = inactive
FEM1C: robust z-score, replicate 1 = -0.0249; robust z-score, replicate 2 = -0.604; robust z-score, replicate 3 = 0.974; Call = inactive
NOP14: robust z-score, replicate 1 = 4.7; robust z-score, replicate 2 = 0.771; robust z-score, replicate 3 = 3.14; Call = inactive
BPIFB4: robust z-score, replicate 1 = -0.609; robust z-score, replicate 2 = 0.00705; robust z-score, replicate 3 = 0.0604; Call = inactive
GRIK2: robust z-score, replicate 1 = -0.723; robust z-score, replicate 2 = -0.477; robust z-score, replicate 3 = -0.931; Call = inactive
IFT27: robust z-score, replicate 1 = 1.59; robust z-score, replicate 2 = 2; robust z-score, replicate 3 = 0.281; Call = inactive
